Measurements reported in PubChem BioAssay AID2417 (National Center for Advancing Translational Sciences (NCATS), 2010).
Among all 140,000 compounds or so, about 4,300 (3.1%) were called active. Inconclusive results, whose numbers are uncertain, are shown with a selection of clear calls.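 Rule for the calls: active = readout at or below -70, meaning at least 70% loss of cells showing the perinucleolar compartment, a nuclear body marking cancer cells; inconclusive = readout between -30 and a set limit; inactive = the rest.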

Assay: High Content Assay for Compounds that inhibit the Assembly of the Perinucleolar Compartment;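 note: plate controls were DMSO wells for no effect and camptothecin positive control wells for full effect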
Details: PC3M PTB-GFP, PNC prevalence imaging, 16 h; at 10 µM; hits give low values
Procedure, shortened: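 PC3M cells stably expressing PTB-GFP, 750–1000 cells/well, treated 16 h at 37 °C with compound (23 nl of library stock), in duplicate. After paraformaldehyde fixation and Hoechst stain, imaged at 20x; PNC prevalence scored by image analysis.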

Q: Which activity change (PNC), negative = inhibition does the source give for `Cn1c(=O)c2cn3c(c2n(C)c1=O)C(c1ccccc1)CC(c1ccccc1)=N3` (centres undefined) here?
A: Its activity change (PNC), negative = inhibition is inconclusive: -35.3%.

Q: Which activity change (PNC), negative = inhibition does the source give for `O=C(CN1C(=O)c2cccc3cccc1c23)N1CCN(c2ccccc2)CC1` here?
A: The activity change (PNC), negative = inhibition was inactive: -6.46%.

Q: For `O=C1NC(=O)C2(COC(c3ccncc3)OC2)S1` (centres undefined), which activity change (PNC), negative = inhibition is on record?
A: The activity change (PNC), negative = inhibition was inconclusive: -52.8%.

Q: With `Cc1ccc2nc(SCc3nnc(-c4ccccc4[N+](=O)[O-])o3)c(C#N)cc2c1` as the compound, how does the activity change (PNC), negative = inhibition read?
A: Its activity change (PNC), negative = inhibition is inconclusive: -64%.

Q: With `COc1ccc(-c2noc(-c3ccc(Cl)cc3)n2)cc1` as the compound, how does the activity change (PNC), negative = inhibition read?
A: The activity change (PNC), negative = inhibition was inconclusive: -40.9%.

Q: With `CCn1c(C(=O)N2CCC(C(=O)NCc3cccs3)CC2)cc2sccc21` as the compound, how does the activity change (PNC), negative = inhibition read?
A: The activity change (PNC), negative = inhibition was inactive: 33%.

Q: For `CCOC(=O)N1CCN(c2c(N3CCN(c4ccccn4)CC3)c(=O)c2=O)CC1`, which activity change (PNC), negative = inhibition is on record?
A: The activity change (PNC), negative = inhibition was inconclusive: -56.5%.

Q: With `CC(=O)OCCCN1c2ccccc2Nc2nnc(-c3ccccc3)cc21` as the compound, how does the activity change (PNC), negative = inhibition read?
A: Its activity change (PNC), negative = inhibition is inactive: 14.1%.

Q: For `CCN1C(=O)c2cccc3c(NC(=O)c4ccc(OC)c(OC)c4)ccc1c23`, which activity change (PNC), negative = inhibition is on record?
A: The activity change (PNC), negative = inhibition was inconclusive: -43.7%.

Q: Which activity change (PNC), negative = inhibition does the source give for `COC(=O)c1cc(C(=O)Nc2nnc(C3CC3)s2)cc([N+](=O)[O-])c1` here?
A: Its activity change (PNC), negative = inhibition is inconclusive: -39.9%.

Q: Which activity change (PNC), negative = inhibition does the source give for `Cc1ccc(N2C(=O)CC(n3nc(C)cc3C)C2=O)cc1` (centres undefined) here?
A: The activity change (PNC), negative = inhibition was inconclusive: -70.9%.

Q: Which activity change (PNC), negative = inhibition does the source give for `Cc1cccc(OCC(=O)Nc2ccccc2C(F)(F)F)c1` here?
A: The activity change (PNC), negative = inhibition was inactive: 13.1%.

Q: Which activity change (PNC), negative = inhibition does the source give for `O=C(Cc1n[nH]c(=O)c2ccccc12)OCC(=O)c1ccc2c(c1)OCCO2` here?
A: Its activity change (PNC), negative = inhibition is active: -102%.

Q: With `Cc1c(C(=O)NN)nc2ccccn12` as the compound, how does the activity change (PNC), negative = inhibition read?
A: The activity change (PNC), negative = inhibition was inactive: -11.1%.

Q: For `COC(=O)Cc1ccc(NC(=S)NCc2ccccc2Cl)cc1`, which activity change (PNC), negative = inhibition is on record?
A: The activity change (PNC), negative = inhibition was inconclusive: -55.1%.

Q: Which activity change (PNC), negative = inhibition does the source give for `CC1=C(C(=O)OCC2CCCO2)C(c2ccccc2OC(C)C)C2=C(CC(c3ccco3)CC2=O)N1` (centres undefined) here?
A: Its activity change (PNC), negative = inhibition is inconclusive: -59.8%.

Q: Which activity change (PNC), negative = inhibition does the source give for `O=c1c(F)cn(C2CCCO2)c(=O)n1Cc1ccccc1F` (centres undefined) here?
A: Its activity change (PNC), negative = inhibition is inconclusive: -33.6%.

Q: Which activity change (PNC), negative = inhibition does the source give for `Cc1cc(C)c(/C=N/n2c(C)cc(C)c(C#N)c2=O)c(C)c1` here?
A: The activity change (PNC), negative = inhibition was inactive: 36.8%.

Q: For `O=S(=O)(NCc1cn2ccsc2n1)c1ccc(Oc2ccccc2)cc1`, which activity change (PNC), negative = inhibition is on record?
A: Its activity change (PNC), negative = inhibition is inactive: 18.5%.

Q: For `N#C/C(=C\c1ccccc1)C(=O)NC(=O)Oc1ccccc1`, which activity change (PNC), negative = inhibition is on record?
A: The activity change (PNC), negative = inhibition was inconclusive: -71.3%.

Q: Which activity change (PNC), negative = inhibition does the source give for `Cc1ccc(Cl)cc1NC(=O)CSC(N)=O` here?
A: The activity change (PNC), negative = inhibition was inconclusive: -62.3%.

Q: For `CCc1nc2ccc(F)cc2c(C(=O)NC2CCCCC2C)c1C` (centres undefined), which activity change (PNC), negative = inhibition is on record?
A: The activity change (PNC), negative = inhibition was inconclusive: -38.3%.

Q: Which activity change (PNC), negative = inhibition does the source give for `Cc1cc(C)cc(NC2=CC(=O)CC(c3ccco3)C2)c1` (centres undefined) here?
A: Its activity change (PNC), negative = inhibition is inconclusive: -45%.

Q: With `O=S(=O)(c1ccc2ccccc2c1)N1CCN(C2CCN(Cc3ccccc3)CC2)CC1` as the compound, how does the activity change (PNC), negative = inhibition read?
A: Its activity change (PNC), negative = inhibition is inconclusive: -65.7%.

Q: With `COc1cc(CN2CC(C)CC(C)C2)cc([N+](=O)[O-])c1O` (centres undefined) as the compound, how does the activity change (PNC), negative = inhibition read?
A: The activity change (PNC), negative = inhibition was inconclusive: -56%.

Q: For `COC(=O)c1c(NC(=O)CN2CCC3(O)CCCCC3C2c2ccc(OC)cc2OC)sc(C)c1C` (centres undefined), which activity change (PNC), negative = inhibition is on record?
A: Its activity change (PNC), negative = inhibition is inactive: 57.7%.

Q: Which activity change (PNC), negative = inhibition does the source give for `O=C(Cc1cccc(C(F)(F)F)c1)NCc1ccc(Cl)cc1Cl` here?
A: Its activity change (PNC), negative = inhibition is inactive: -20.1%.

Q: With `COC(=O)c1sc(S(=O)(=O)N2CCN(c3ccccc3)CC2)c(C(=O)OC)c1C` as the compound, how does the activity change (PNC), negative = inhibition read?
A: Its activity change (PNC), negative = inhibition is inconclusive: -51.8%.

Q: Which activity change (PNC), negative = inhibition does the source give for `CCCNS(=O)(=O)c1ccc(OCC(=O)Nc2ccccc2F)cc1` here?
A: The activity change (PNC), negative = inhibition was active: -112%.

Q: Which activity change (PNC), negative = inhibition does the source give for `CCOC(=O)C1CCN(S(=O)(=O)c2cccc(-c3csc(C)n3)c2)CC1` here?
A: The activity change (PNC), negative = inhibition was inconclusive: -71%.

Q: With `COc1cccc(-c2nc(-c3ccccc3)[nH]c(=O)c2C#N)c1` as the compound, how does the activity change (PNC), negative = inhibition read?
A: Its activity change (PNC), negative = inhibition is inconclusive: -34.4%.

Q: Which activity change (PNC), negative = inhibition does the source give for `CC(C)(Oc1ccc(Cl)cc1)C(=O)N(Cc1ccccc1)c1ccccn1` here?
A: The activity change (PNC), negative = inhibition was inactive: -1.29%.

Q: For `FC(F)(F)c1cccc(N2CCc3cn[nH]c32)c1`, which activity change (PNC), negative = inhibition is on record?
A: The activity change (PNC), negative = inhibition was inconclusive: -66%.

Q: With `O=C(N/N=C/c1cccs1)c1cc(-c2ccc3ccccc3c2)n[nH]1` as the compound, how does the activity change (PNC), negative = inhibition read?
A: Its activity change (PNC), negative = inhibition is inactive: -18.3%.

Q: Which activity change (PNC), negative = inhibition does the source give for `CCCCNC(=O)CSc1nccn1Cc1ccccc1` here?
A: The activity change (PNC), negative = inhibition was inconclusive: -78.4%.

Q: Which activity change (PNC), negative = inhibition does the source give for `COc1cccc(N=C2C(=O)N3CCCc4cccc2c43)c1` here?
A: Its activity change (PNC), negative = inhibition is inactive: 15.9%.

Q: With `Cc1cc(N2CCOCC2)nc(-c2ccccc2O)n1` as the compound, how does the activity change (PNC), negative = inhibition read?
A: Its activity change (PNC), negative = inhibition is inconclusive: -71.1%.

Q: With `O=C(COc1ccccc1Br)NCc1ccco1` as the compound, how does the activity change (PNC), negative = inhibition read?
A: The activity change (PNC), negative = inhibition was inactive: -24.1%.

Q: For `CC1=CC(C)(C)N(C(=O)CSc2nccn2C)c2cc(C)ccc21`, which activity change (PNC), negative = inhibition is on record?
A: Its activity change (PNC), negative = inhibition is inconclusive: -70.7%.

Q: With `CCOc1c(C#N)c(C#N)c2nc(C)cc(C)n12` as the compound, how does the activity change (PNC), negative = inhibition read?
A: The activity change (PNC), negative = inhibition was inconclusive: -37.2%.

Q: With `CC(=O)OCc1c(F)c(F)c(-n2nc(C)cc2C)c(F)c1F` as the compound, how does the activity change (PNC), negative = inhibition read?
A: Its activity change (PNC), negative = inhibition is inconclusive: -43.6%.

Q: For `Cc1ccc(Sc2nc([N+](=O)[O-])nn2C)cc1`, which activity change (PNC), negative = inhibition is on record?
A: Its activity change (PNC), negative = inhibition is inconclusive: -34.4%.

Q: With `O=C1C2C3C=CC(C3)C2C(=O)N1CNc1ccc(O)cc1` (centres undefined) as the compound, how does the activity change (PNC), negative = inhibition read?
A: The activity change (PNC), negative = inhibition was inconclusive: -54.2%.

Q: Which activity change (PNC), negative = inhibition does the source give for `COc1ccc(OC)c(S(=O)(=O)N2CCc3ccccc32)c1` here?
A: Its activity change (PNC), negative = inhibition is inconclusive: -37%.

Q: With `CCOC(=O)C1CCN(C(=O)CSc2n[nH]c(=O)[nH]c2=O)CC1` as the compound, how does the activity change (PNC), negative = inhibition read?
A: The activity change (PNC), negative = inhibition was inconclusive: -30.4%.

Q: With `CN(c1ccccc1)S(=O)(=O)c1ccc(C(=O)Nc2nccs2)cc1` as the compound, how does the activity change (PNC), negative = inhibition read?
A: The activity change (PNC), negative = inhibition was inactive: -4.94%.

Q: With `COc1ccc(NC(=O)C2OC3OC(C)(C)OC3C3OC(C)(C)OC23)cc1` (centres undefined) as the compound, how does the activity change (PNC), negative = inhibition read?
A: Its activity change (PNC), negative = inhibition is inconclusive: -44%.

Q: Which activity change (PNC), negative = inhibition does the source give for `Cc1ccc(CNC(=O)CCCn2c(=O)c3ccccc3n(CC(=O)NC3CCCC3)c2=O)cc1` here?
A: The activity change (PNC), negative = inhibition was inconclusive: -50.4%.

Q: Which activity change (PNC), negative = inhibition does the source give for `Cn1c(=O)c2c(nc(-n3ccnc3)n2C)n(C)c1=O` here?
A: Its activity change (PNC), negative = inhibition is inconclusive: -69.5%.

Q: Which activity change (PNC), negative = inhibition does the source give for `CCN(CC)S(=O)(=O)c1ccc(Cl)c(C(=O)N2CCc3ccccc32)c1` here?
A: The activity change (PNC), negative = inhibition was inconclusive: -45.8%.

Q: Which activity change (PNC), negative = inhibition does the source give for `COc1ccc(S(=O)(=O)Nc2ccc(F)c(Cl)c2)cc1OC` here?
A: Its activity change (PNC), negative = inhibition is inconclusive: -41.9%.

Q: For `N#CC1=C(N2CCOCC2)/C(=C\c2ccccc2)CC1`, which activity change (PNC), negative = inhibition is on record?
A: Its activity change (PNC), negative = inhibition is inconclusive: -63.6%.

Q: With `COc1ccc(C(C)C)cc1S(=O)(=O)n1ccnc1C` as the compound, how does the activity change (PNC), negative = inhibition read?
A: The activity change (PNC), negative = inhibition was inconclusive: -62.6%.

Q: Which activity change (PNC), negative = inhibition does the source give for `COc1cc(NS(=O)(=O)c2ccc(N/C=C(\C#N)c3nc4cc(Cl)ccc4o3)cc2)nc(OC)n1` here?
A: Its activity change (PNC), negative = inhibition is inconclusive: -47.8%.

Q: With `CC(=O)Oc1ccc(C(=O)O)cc1OC(C)=O` as the compound, how does the activity change (PNC), negative = inhibition read?
A: Its activity change (PNC), negative = inhibition is inconclusive: -47.5%.

Q: For `COc1ccc(-n2c(-c3ccccc3)nc(=S)c3c2CCCC3)cc1`, which activity change (PNC), negative = inhibition is on record?
A: The activity change (PNC), negative = inhibition was inactive: 12.2%.

Q: With `S=C1NC2(CCCCC2)Cc2ccccc21` as the compound, how does the activity change (PNC), negative = inhibition read?
A: Its activity change (PNC), negative = inhibition is inconclusive: -33.5%.

Q: With `O=C(NCCc1ccccc1)C(=O)Nc1nccs1` as the compound, how does the activity change (PNC), negative = inhibition read?
A: The activity change (PNC), negative = inhibition was inconclusive: -51.9%.

Q: With `Cc1c(Cc2ccccc2)sc(/N=C/c2c(O)ccc3ccccc23)c1C(N)=O` as the compound, how does the activity change (PNC), negative = inhibition read?
A: Its activity change (PNC), negative = inhibition is inconclusive: -42.2%.
